The target in this experiment is T1, FBXW4_P57775_167_RPLGVFAGHDEDVCHFVLANSHIVSAGGDGK (UniProt P57775).
T1 sequence (whole entry): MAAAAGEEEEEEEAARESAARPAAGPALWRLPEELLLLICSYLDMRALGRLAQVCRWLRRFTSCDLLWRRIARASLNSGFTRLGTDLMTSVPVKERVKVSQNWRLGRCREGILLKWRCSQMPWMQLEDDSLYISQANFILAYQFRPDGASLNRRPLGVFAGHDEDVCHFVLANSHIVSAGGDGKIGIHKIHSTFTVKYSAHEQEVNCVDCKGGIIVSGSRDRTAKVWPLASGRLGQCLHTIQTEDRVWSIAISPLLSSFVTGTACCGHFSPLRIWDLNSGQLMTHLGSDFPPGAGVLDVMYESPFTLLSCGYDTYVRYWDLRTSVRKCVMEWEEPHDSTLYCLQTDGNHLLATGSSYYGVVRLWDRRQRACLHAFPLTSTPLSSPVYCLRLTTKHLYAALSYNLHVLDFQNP
Put plainly: probe-labelled cysteine peptide fold change vs DMSO (competition) (log2 fold change); higher = less target engagement (more negative = stronger competition). Conditions: THP-1, incubation time: 4 h.

This is one part of the list.
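Further: competitive profiling in live THP-1 cells: cysteine peptides tagged with an iodoacetamide desthiobiotin (IA-DTB) probe, intensity after compound treatment relative to DMSO-treated cells.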

Take `Cc1cc(C(=O)N2CCCN(C(=O)CCl)CC2)ccc1-c1ccccc1` [compound 10]: the “probe-labelled cysteine peptide fold change” value was -0.00195 (10 µM) and -0.0411 (50 µM).

The values are drawn from the supplement of paper PMC12067093, “Discovery and optimisation of a covalent ligand for TRIM25 and its application to targeted protein ubiquitination” (Chemical Science, 2025).
